Measured values as given in PMC12150047.
Results are given in words; binding and its absence hold for the method and conditions named. For part of these data: In cells and extracts the contact can be indirect. Some results given as binding are weak or reduced against the parent protein; the word gives no strength.

The chains behind the UniProt entries cited, without tags or fusion partners. Where a name states a change or a piece, a line headed by the entry shows the natural chain unless it says otherwise.
UniProt Q92769: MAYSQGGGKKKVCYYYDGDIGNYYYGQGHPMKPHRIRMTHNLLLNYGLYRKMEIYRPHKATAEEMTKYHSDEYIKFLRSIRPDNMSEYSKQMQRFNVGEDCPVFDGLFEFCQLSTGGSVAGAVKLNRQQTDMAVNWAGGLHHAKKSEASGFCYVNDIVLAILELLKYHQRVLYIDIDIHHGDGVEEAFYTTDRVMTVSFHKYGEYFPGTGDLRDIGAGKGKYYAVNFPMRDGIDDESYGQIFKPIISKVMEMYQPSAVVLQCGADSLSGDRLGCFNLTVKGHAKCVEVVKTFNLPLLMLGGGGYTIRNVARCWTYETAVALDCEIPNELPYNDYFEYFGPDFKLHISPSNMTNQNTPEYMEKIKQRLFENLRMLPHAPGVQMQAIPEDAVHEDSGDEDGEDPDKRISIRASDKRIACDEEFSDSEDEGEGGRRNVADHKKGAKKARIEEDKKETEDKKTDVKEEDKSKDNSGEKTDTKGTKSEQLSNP
UniProt P38533: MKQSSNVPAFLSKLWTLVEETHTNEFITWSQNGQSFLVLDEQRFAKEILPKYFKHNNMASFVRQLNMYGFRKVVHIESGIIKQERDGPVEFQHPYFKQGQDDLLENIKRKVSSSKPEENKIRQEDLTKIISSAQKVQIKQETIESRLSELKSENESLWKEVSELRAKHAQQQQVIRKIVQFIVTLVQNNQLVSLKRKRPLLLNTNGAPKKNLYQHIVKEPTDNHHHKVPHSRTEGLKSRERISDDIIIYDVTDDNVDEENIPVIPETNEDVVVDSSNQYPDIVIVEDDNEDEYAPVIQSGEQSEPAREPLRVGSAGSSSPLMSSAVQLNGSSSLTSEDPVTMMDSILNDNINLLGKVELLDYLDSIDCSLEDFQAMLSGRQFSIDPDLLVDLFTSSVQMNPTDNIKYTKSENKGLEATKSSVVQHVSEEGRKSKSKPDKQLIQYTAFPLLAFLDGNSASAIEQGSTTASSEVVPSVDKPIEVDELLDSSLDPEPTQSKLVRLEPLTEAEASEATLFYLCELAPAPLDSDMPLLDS
UniProt Q13547: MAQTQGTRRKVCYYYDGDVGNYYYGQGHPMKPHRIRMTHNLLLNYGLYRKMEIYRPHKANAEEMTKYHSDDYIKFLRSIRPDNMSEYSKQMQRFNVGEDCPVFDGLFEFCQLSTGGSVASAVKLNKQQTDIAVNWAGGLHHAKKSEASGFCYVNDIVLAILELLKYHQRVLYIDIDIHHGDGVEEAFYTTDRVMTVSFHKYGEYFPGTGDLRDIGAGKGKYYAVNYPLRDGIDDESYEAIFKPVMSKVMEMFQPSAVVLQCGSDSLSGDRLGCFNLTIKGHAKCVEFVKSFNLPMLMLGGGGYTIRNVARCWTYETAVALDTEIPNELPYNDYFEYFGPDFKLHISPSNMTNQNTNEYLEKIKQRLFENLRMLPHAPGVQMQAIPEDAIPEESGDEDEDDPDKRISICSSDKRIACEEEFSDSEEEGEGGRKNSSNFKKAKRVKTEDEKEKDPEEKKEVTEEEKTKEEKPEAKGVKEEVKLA
UniProt Q03933: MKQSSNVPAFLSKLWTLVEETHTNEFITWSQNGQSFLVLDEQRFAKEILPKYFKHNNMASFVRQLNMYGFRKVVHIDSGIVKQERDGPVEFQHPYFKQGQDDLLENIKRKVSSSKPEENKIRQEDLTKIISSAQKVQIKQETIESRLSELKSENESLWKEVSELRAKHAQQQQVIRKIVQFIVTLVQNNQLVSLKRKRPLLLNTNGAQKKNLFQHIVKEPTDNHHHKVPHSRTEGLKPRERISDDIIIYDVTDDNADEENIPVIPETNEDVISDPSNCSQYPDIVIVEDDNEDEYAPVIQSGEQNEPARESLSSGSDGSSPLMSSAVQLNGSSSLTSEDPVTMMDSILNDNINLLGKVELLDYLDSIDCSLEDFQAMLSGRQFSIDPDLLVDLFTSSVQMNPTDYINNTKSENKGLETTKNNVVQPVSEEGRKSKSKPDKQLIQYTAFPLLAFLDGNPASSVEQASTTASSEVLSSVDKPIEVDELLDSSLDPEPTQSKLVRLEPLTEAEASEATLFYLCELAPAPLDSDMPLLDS
UniProt O09106: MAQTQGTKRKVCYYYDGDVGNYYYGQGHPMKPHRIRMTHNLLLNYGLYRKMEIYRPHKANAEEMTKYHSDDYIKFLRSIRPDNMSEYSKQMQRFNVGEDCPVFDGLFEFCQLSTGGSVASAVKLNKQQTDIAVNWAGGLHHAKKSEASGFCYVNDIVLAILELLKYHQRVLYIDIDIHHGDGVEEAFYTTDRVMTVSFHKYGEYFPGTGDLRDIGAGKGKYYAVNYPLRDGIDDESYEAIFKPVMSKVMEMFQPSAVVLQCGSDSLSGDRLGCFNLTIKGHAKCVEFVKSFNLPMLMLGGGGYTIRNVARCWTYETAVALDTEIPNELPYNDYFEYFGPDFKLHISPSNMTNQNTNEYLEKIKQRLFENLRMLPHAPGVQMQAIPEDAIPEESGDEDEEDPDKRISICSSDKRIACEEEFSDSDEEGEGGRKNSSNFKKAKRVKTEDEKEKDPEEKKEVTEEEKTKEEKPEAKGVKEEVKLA

Key:
[1] = target: HDAC2 (as tested in the F3H assay) (UniProt Q92769); assay: fluorescent three-hybrid assay (F3H); BHK cells with a genomic LacOp array, transfected with LacI fused to a GFP binder, the GFP-tagged bait and Flag-HSF2; co-recruitment to the nuclear spot seen by confocal microscopy
[2] = target: endogenous HSF2 protein of the mouse fetal cortex (mouse (endogenous in fetal cortex)) (UniProt P38533); assay: co-IP; HSF2 immunoprecipitated from lysates of the mouse fetal cortex (E12.5); immunodetection by Simple Western (ProteinSimple Jess)
[3] = target: HDAC1-GFP (in HEK 293 cells) (UniProt Q13547); assay: co-IP; GFP-Trap of HDAC1-GFP from extracts of co-transfected HEK 293 cells (50 mM Hepes pH 8, 100 mM NaCl, 5 mM EDTA, Triton X-100 0.5%, glycerol 10%, VPA 1 mM); HSF2 detected with anti-Myc

Substance: Flag-HSF2 (in BHK cells) (from UniProt Q03933 1-536)
- binding [1]: no binding

Substance: lysine-deacetylase HDAC1, mouse (from UniProt O09106 1-482) (enzyme)
- binding [2]: binds

Substance: HSF2-Myc (from UniProt Q03933 1-536)
- binding [3]: binds
